Source: the supplement of paper PMC10849652
The other results are listed elsewhere or left out.

The chains behind the UniProt entries cited, without tags or fusion partners. Where a name states a change or a piece, a line headed by the entry shows the natural chain unless it says otherwise.
UniProt Q14376: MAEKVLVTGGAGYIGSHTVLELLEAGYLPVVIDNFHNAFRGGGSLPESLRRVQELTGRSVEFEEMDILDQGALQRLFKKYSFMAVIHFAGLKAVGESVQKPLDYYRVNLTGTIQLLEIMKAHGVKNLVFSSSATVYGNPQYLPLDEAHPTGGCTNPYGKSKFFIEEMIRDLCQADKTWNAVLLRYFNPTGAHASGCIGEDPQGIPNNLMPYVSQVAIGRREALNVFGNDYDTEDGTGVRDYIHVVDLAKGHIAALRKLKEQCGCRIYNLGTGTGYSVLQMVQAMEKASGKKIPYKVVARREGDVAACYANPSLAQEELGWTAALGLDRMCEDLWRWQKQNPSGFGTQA
UniProt Q9H3K2: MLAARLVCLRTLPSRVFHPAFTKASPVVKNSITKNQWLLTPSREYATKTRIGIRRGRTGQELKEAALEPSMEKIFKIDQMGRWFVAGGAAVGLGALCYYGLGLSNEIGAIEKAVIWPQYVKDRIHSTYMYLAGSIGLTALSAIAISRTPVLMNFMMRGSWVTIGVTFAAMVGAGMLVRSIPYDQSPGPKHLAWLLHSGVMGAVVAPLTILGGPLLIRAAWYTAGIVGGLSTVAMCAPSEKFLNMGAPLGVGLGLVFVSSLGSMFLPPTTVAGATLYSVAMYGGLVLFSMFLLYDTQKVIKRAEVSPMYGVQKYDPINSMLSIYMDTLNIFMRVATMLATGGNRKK
UniProt P50395: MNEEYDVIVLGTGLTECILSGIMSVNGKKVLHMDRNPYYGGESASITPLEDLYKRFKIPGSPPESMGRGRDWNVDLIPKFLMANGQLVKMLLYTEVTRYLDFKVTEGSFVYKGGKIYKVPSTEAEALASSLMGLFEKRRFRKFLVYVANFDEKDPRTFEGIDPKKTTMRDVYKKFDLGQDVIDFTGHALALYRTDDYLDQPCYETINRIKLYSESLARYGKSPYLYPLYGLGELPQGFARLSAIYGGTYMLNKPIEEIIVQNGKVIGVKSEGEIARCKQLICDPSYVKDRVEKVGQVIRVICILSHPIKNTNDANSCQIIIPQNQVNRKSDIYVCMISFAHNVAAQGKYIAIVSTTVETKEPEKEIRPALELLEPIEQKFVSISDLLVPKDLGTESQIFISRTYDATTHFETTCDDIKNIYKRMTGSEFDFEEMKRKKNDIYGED
UniProt P41250: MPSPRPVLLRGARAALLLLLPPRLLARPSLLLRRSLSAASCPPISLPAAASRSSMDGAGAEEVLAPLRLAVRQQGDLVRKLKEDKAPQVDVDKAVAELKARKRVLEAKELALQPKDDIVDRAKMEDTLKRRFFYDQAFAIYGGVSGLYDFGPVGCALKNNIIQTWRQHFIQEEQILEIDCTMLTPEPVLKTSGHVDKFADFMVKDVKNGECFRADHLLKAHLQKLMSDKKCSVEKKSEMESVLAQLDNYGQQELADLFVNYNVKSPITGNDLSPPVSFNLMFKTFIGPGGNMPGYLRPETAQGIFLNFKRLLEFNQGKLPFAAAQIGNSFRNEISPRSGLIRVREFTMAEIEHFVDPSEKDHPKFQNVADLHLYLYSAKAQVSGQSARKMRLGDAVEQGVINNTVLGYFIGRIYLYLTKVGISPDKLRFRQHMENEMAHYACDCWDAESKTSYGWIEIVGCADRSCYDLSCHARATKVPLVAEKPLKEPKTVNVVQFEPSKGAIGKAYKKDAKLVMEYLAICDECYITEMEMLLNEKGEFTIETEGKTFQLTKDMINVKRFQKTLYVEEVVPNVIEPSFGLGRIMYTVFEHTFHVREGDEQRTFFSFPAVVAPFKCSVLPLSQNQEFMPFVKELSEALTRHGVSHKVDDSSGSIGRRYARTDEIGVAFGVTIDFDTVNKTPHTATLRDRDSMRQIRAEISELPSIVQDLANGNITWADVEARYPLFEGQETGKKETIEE
UniProt Q6NT46: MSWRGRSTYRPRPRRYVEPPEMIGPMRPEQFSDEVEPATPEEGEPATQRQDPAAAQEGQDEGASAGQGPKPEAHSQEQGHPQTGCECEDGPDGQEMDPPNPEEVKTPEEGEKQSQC
UniProt P51116, whole entry, looked up: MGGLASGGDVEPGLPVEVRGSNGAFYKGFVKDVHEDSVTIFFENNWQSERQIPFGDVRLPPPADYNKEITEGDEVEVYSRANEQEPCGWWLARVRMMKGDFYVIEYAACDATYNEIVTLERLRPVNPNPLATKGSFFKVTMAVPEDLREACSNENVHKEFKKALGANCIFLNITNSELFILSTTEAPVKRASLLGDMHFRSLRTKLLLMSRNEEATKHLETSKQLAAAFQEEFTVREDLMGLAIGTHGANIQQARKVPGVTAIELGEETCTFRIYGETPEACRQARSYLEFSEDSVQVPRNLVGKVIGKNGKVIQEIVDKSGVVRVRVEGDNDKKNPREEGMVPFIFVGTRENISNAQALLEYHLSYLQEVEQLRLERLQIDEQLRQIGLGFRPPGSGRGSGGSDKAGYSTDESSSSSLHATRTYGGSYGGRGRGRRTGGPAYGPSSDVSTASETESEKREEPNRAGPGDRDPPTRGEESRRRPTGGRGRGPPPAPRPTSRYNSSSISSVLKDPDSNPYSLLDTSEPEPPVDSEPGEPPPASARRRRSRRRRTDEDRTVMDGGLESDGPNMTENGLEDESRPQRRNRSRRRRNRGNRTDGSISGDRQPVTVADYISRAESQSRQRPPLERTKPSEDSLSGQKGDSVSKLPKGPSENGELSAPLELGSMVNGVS
UniProt Q96AE4: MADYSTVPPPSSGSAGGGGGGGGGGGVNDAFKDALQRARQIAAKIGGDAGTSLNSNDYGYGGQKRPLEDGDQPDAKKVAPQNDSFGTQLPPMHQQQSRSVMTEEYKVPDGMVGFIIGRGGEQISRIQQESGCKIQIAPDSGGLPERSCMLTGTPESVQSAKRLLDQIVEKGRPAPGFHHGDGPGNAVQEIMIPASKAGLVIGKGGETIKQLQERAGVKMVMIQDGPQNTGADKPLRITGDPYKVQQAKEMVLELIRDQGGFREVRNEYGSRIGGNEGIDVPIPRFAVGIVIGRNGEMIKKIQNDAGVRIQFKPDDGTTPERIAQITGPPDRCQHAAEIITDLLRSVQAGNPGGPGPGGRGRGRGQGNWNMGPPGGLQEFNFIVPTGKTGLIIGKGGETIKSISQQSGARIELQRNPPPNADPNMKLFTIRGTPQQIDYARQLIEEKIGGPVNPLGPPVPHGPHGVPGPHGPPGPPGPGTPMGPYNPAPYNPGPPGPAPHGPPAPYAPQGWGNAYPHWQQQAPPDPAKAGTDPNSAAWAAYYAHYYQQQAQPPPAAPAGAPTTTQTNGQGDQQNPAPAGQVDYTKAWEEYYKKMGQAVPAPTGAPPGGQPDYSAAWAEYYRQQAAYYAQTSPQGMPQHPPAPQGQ
UniProt Q9NZ52: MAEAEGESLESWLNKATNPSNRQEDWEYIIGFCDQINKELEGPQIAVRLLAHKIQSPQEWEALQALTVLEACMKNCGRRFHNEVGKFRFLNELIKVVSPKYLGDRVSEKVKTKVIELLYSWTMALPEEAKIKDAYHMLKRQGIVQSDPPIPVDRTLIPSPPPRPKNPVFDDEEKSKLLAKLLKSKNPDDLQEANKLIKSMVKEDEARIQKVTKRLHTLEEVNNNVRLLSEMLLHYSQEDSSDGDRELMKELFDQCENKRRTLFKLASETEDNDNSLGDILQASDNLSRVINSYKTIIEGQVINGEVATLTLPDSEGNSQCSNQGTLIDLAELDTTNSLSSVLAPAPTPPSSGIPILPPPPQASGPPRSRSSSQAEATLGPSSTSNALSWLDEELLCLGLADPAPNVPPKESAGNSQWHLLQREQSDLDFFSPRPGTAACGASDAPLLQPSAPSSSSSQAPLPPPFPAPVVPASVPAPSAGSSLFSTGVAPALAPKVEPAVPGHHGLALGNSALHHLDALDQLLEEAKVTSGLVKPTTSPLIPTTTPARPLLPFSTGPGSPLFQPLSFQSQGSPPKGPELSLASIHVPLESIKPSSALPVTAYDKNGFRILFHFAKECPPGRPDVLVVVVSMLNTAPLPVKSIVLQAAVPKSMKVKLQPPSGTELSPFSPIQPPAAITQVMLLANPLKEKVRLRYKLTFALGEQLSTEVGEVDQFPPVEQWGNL
UniProt Q7L5D6: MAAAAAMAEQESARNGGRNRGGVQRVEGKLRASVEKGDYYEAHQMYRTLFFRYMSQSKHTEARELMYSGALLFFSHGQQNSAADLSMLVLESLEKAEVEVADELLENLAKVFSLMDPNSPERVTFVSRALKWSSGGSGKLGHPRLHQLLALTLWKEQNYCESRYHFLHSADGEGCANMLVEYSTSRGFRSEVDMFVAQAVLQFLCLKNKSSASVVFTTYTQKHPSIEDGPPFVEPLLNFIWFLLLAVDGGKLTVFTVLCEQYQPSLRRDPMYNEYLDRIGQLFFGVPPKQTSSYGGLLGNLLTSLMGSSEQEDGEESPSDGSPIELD
UniProt Q96C23: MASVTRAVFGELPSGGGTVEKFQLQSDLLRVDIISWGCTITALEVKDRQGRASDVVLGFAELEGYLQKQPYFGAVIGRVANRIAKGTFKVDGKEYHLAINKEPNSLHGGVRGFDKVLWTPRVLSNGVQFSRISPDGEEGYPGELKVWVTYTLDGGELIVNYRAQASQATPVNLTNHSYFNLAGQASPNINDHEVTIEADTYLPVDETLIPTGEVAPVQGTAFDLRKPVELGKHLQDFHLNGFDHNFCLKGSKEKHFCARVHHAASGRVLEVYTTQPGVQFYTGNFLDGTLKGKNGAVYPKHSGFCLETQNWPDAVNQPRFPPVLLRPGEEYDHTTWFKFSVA
UniProt P11413, whole entry, looked up: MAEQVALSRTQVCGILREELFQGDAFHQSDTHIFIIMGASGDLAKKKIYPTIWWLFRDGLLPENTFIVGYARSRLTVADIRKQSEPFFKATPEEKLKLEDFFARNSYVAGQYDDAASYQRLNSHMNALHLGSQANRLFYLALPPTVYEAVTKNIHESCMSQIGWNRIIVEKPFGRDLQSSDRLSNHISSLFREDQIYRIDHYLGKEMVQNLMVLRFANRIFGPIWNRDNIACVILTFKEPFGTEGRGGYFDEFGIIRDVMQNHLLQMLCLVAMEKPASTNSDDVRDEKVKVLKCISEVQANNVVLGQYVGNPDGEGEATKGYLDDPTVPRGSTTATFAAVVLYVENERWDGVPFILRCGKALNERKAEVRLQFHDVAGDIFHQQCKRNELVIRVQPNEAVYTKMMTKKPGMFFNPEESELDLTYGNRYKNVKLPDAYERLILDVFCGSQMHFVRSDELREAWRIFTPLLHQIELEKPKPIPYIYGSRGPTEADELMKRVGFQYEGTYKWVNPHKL
UniProt P02792: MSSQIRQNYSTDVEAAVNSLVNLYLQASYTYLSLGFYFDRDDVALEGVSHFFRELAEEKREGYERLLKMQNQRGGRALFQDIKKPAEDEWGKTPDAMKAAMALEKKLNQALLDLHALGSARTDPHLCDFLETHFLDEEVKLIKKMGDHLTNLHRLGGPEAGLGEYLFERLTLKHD
UniProt Q9UN86: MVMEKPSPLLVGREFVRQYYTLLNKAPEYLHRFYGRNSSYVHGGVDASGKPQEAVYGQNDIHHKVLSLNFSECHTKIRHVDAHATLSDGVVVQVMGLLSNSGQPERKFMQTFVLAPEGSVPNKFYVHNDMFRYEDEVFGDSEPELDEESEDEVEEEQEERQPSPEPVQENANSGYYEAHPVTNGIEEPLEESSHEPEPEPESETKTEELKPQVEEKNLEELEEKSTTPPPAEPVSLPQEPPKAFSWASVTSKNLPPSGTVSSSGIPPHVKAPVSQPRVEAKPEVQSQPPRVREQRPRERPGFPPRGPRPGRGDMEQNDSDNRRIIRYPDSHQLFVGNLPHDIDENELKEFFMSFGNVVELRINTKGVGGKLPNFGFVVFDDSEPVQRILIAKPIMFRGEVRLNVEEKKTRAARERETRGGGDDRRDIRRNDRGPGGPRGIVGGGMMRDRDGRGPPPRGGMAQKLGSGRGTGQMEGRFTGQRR
UniProt P04062: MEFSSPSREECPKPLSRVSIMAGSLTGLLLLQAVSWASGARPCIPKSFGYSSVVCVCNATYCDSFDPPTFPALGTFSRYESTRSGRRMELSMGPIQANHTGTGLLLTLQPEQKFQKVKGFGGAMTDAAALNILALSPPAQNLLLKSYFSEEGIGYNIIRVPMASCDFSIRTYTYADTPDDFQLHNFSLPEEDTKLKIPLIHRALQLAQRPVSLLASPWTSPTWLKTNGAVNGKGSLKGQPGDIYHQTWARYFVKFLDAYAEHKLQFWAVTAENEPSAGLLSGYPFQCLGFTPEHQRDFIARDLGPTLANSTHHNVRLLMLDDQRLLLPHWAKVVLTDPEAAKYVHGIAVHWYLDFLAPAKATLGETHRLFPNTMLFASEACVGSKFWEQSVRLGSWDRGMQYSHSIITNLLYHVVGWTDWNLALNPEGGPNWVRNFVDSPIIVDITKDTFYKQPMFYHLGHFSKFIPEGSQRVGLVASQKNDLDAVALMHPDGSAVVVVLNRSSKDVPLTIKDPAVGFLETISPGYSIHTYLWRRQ

Key:
Assay in all cases: log2 fold change, soluble protein after heating vs DMSO (PISA); higher = thermal stabilisation; K562 cells, 10 uM, 30 min; active = over 0.2 and 3.5 SD of the protein, either way, in both replicates (recomputed)
[1] = compound: CS(=O)(=O)c1ccc(-c2cnc(N)c(C(=O)Nc3ccccc3)n2)cc1
Outline: (§1)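 Soluble protein was defined as the supernatant after 21,000xg for 90 min. It came from K562 cells at 2×10^6 cells/mL given 10 μM compound for 30 min, heated in aliquots for 3 min across 48°C-58°C, pooled, and extracted in PBS with 0.5% NP-40 at 4°C, and was quantified by TMTpro 16plex LC-MS/MS with equalised channel sums. Thermal stability against control samples, from duplicates, is reported as log2 fold change.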

crizotinib = compound: C[C@@H](Oc1cc(-c2cnn(C3CCNCC3)c2)cnc1N)c1c(Cl)ccc(F)c1Cl [crizotinib]
Outline: as §1

[2] = compound: C[C@@H]1COCCN1C2=NC(=NC(=C2)C3(CC3)S(=O)(=O)C)C4=C5C=CNC5=CC=C4
Outline: as §1

[3] = compound: C[C@H](C1=CC=C(C=C1)C(=O)NC2=C3C=CNC3=NC=C2)N
Outline: as §1

duvelisib = compound: C[C@H](Nc1ncnc2nc[nH]c12)c1cc2cccc(Cl)c2c(=O)n1-c1ccccc1 [duvelisib]
Outline: as §1

gandotinib = compound: Cc1cc(Nc2cc(CN3CCOCC3)c3nc(C)c(Cc4ccc(Cl)cc4F)n3n2)n[nH]1 [gandotinib]
Outline: as §1

tozasertib = compound: Cc1cc(Nc2cc(N3CCN(C)CC3)nc(Sc3ccc(NC(=O)C4CC4)cc3)n2)n[nH]1 [tozasertib]
Outline: as §1

[4] = compound: Cc1cc(SCc2sc(-c3ccc(C(F)(F)F)cc3)nc2C)ccc1OCC(=O)O
Outline: as §1

doramapimod = compound: Cc1ccc(-n2nc(C(C)(C)C)cc2NC(=O)Nc2ccc(OCCN3CCOCC3)c3ccccc23)cc1 [doramapimod]
Outline: as §1

ispinesib = compound: Cc1ccc(C(=O)N(CCCN)[C@@H](c2nc3cc(Cl)ccc3c(=O)n2Cc2ccccc2)C(C)C)cc1 [ispinesib]
Outline: as §1

bafetinib = compound: Cc1ccc(NC(=O)c2ccc(CN3CC[C@H](N(C)C)C3)c(C(F)(F)F)c2)cc1Nc1nccc(-c2cncnc2)n1 [bafetinib]
Outline: as §1

[5] = compound: Cc1cccc(CC(=O)N2CCc3c2ccc(-c2cn(C)c4ncnc(N)c24)c3F)n1
Outline: as §1

nilotinib = compound: Cc1cn(-c2cc(NC(=O)c3ccc(C)c(Nc4nccc(-c5cccnc5)n4)c3)cc(C(F)(F)F)c2)cn1 [nilotinib]
Outline: as §1

[6] = compound: Cc1nc(Nc2n[nH]c3c2CN(C(=O)N[C@H](CN(C)C)c2ccccc2)C3(C)C)c2sccc2n1
Outline: as §1

dasatinib = compound: Cc1nc(Nc2ncc(C(=O)Nc3c(C)cccc3Cl)s2)cc(N2CCN(CCO)CC2)n1 [dasatinib]
Outline: as §1

[7] = compound: Cc1ncc(-c2ccnc(Nc3ccc(S(C)(=O)=O)cc3)n2)n1C(C)C
Outline: as §1

[8] = compound: Cn1cc(-c2ccc3c(c2)CCN3C(=O)Cc2cccc(C(F)(F)F)c2)c2c(N)ncnc21
Outline: as §1

[9] = compound: Cn1cc(-c2ccc3nnc(C(F)(F)c4ccc5ncccc5c4)n3n2)cn1
Outline: as §1

tipifarnib = compound: Cn1cncc1[C@@](N)(c1ccc(Cl)cc1)c1ccc2c(c1)c(-c1cccc(Cl)c1)cc(=O)n2C [tipifarnib]
Outline: as §1

mubritinib = compound: FC(F)(F)c1ccc(/C=C/c2nc(COc3ccc(CCCCn4ccnn4)cc3)co2)cc1 [mubritinib]
Outline: as §1

Measured: log2 fold change

GALE (UniProt Q14376)
inactive: [1] 0.028 | crizotinib 0.042 | [2] 0.091 | [3] -0.041 | duvelisib 0.036 | gandotinib 0.017 | tozasertib -0.023 | [4] 0 | doramapimod -0.058 | ispinesib 0.11 | bafetinib 0.006 | [5] 0.044 | nilotinib 0.072 | [6] -0.025 | dasatinib 0.004 | [7] 0 | [8] 0.06 | [9] 0.034 | tipifarnib -0.033 | mubritinib 0.123

GHITM (UniProt Q9H3K2)
inactive: [1] -0.006 | crizotinib -0.022 | [2] 0.034 | [3] -0.083 | duvelisib -0.002 | gandotinib -0.097 | tozasertib -0.012 | [4] -0.006 | doramapimod -0.011 | ispinesib -0.06 | bafetinib -0.055 | [5] 0.015 | nilotinib 0.01 | [6] 0.023 | dasatinib 0.024 | [7] 0.002 | [8] 0.006 | [9] 0.019 | tipifarnib -0.068 | mubritinib 0.07

GDI2 (UniProt P50395)
inactive: [1] 0.005 | crizotinib 0.02 | [2] 0.009 | [3] -0.055 | duvelisib 0.034 | gandotinib -0.121 | tozasertib 0.025 | [4] 0.003 | doramapimod -0.025 | ispinesib 0.04 | bafetinib 0.012 | [5] -0.002 | nilotinib -0.004 | [6] 0.018 | dasatinib -0.03 | [7] -0.021 | [8] 0.016 | [9] -0.035 | tipifarnib -0.06 | mubritinib 0.032

GARS1 (UniProt P41250)
inactive: [1] 0.017 | crizotinib 0.045 | [2] 0.032 | [3] -0.044 | duvelisib 0.009 | gandotinib 0.01 | tozasertib -0.033 | [4] -0.041 | doramapimod -0.019 | ispinesib 0.022 | bafetinib -0.039 | [5] -0.033 | nilotinib 0.005 | [6] 0.003 | dasatinib 0.037 | [7] 0.01 | [8] 0.005 | [9] -0.005 | tipifarnib 0.026 | mubritinib 0.028

GAGE2A (UniProt Q6NT46)
inactive: [1] 0.015 | crizotinib 0.066 | [2] 0.16 | [3] 0.139 | duvelisib 0.097 | gandotinib -0.002 | tozasertib -0.092 | [4] 0.026 | doramapimod 0.057 | ispinesib -0.016 | bafetinib -0.084 | [5] -0.036 | nilotinib 0.008 | [6] -0.004 | dasatinib 0.104 | [7] 0.031 | [8] 0.011 | [9] 0.014 | tipifarnib 0.032 | mubritinib 0.009

FXR2 (UniProt P51116)
inactive: [1] -0.046 | crizotinib -0.131 | [2] -0.127 | [3] 0.446 | duvelisib -0.207 | gandotinib 0.191 | tozasertib 0.052 | [4] 0.084 | doramapimod 0.118 | ispinesib -0.306 | bafetinib 0.181 | [5] -0.01 | nilotinib 0.019 | [6] -0.266 | dasatinib 0.083 | [7] 0.001 | [8] -0.215 | [9] -0.259 | tipifarnib 0.042 | mubritinib -0.204

FUBP1 isoform 2 (UniProt Q96AE4)
inactive: [1] 0.002 | crizotinib 0.038 | [2] 0.002 | [3] -0.04 | duvelisib 0.014 | gandotinib -0.012 | tozasertib -0.023 | [4] -0.034 | doramapimod -0.05 | ispinesib 0.019 | bafetinib -0.03 | [5] -0.059 | nilotinib -0.01 | [6] 0.006 | dasatinib 0.045 | [7] -0.012 | [8] 0.012 | [9] 0.01 | tipifarnib 0.029 | mubritinib 0.031

GGA3 (UniProt Q9NZ52)
inactive: [1] -0.001 | crizotinib 0.057 | [2] 0.058 | [3] -0.031 | duvelisib 0.044 | gandotinib -0.151 | tozasertib 0.063 | [4] 0.039 | doramapimod -0.021 | ispinesib 0.063 | bafetinib -0.04 | [5] 0.059 | nilotinib -0.082 | [6] -0.022 | dasatinib -0.029 | [7] 0.015 | [8] -0.028 | [9] -0.021 | tipifarnib -0.033 | mubritinib -0.006

GET4 (UniProt Q7L5D6)
inactive: [1] 0.049 | crizotinib -0.031 | [2] 0.064 | [3] 0.051 | duvelisib 0.025 | gandotinib -0.012 | tozasertib 0.01 | [4] 0.034 | doramapimod 0.016 | ispinesib -0.023 | bafetinib -0.03 | [5] 0.008 | nilotinib 0.014 | [6] 0.008 | dasatinib -0.07 | [7] 0.02 | [8] 0.009 | [9] -0.02 | tipifarnib 0.005 | mubritinib 0.048

GALM (UniProt Q96C23)
inactive: [1] 0.037 | crizotinib -0.042 | [2] 0.114 | [3] -0.022 | duvelisib 0.001 | gandotinib -0.057 | tozasertib -0.038 | [4] -0.016 | doramapimod -0.017 | ispinesib 0 | bafetinib -0.065 | [5] 0.077 | nilotinib -0.011 | [6] -0.001 | dasatinib 0.004 | [7] -0.009 | [8] 0.093 | [9] 0.021 | tipifarnib 0.006 | mubritinib 0.007

G6PD isoform 2 (UniProt P11413)
inactive: [1] 0.031 | crizotinib -0.038 | [2] 0.109 | [3] -0.086 | duvelisib 0.017 | gandotinib -0.088 | tozasertib -0.018 | [4] 0.012 | doramapimod 0.018 | ispinesib 0.035 | bafetinib 0.017 | [5] 0.036 | nilotinib 0.073 | [6] -0.004 | dasatinib -0.066 | [7] -0.005 | [8] 0.07 | [9] -0.01 | tipifarnib -0.043 | mubritinib 0.004

FTL (UniProt P02792)
inactive: [1] -0.14 | crizotinib -0.099 | [2] -0.235 | [3] 0.001 | duvelisib -0.013 | gandotinib 0.072 | tozasertib 0.054 | [4] 0.064 | doramapimod 0.068 | ispinesib -0.071 | bafetinib -0.107 | [5] -0.02 | nilotinib 0.073 | [6] 0.043 | dasatinib -0.122 | [7] -0.097 | [8] -0.084 | [9] -0.117 | tipifarnib 0.057 | mubritinib -0.042

2 successive entries out of the list so far, for reference:
G6PD isoform 2 (UniProt P11413)
inactive: [1] 0.031 | crizotinib -0.038 | [2] 0.109 | [3] -0.086 | duvelisib 0.017 | gandotinib -0.088 | tozasertib -0.018 | [4] 0.012 | doramapimod 0.018 | ispinesib 0.035 | bafetinib 0.017 | [5] 0.036 | nilotinib 0.073 | [6] -0.004 | dasatinib -0.066 | [7] -0.005 | [8] 0.07 | [9] -0.01 | tipifarnib -0.043 | mubritinib 0.004

FTL (UniProt P02792)
inactive: [1] -0.14 | crizotinib -0.099 | [2] -0.235 | [3] 0.001 | duvelisib -0.013 | gandotinib 0.072 | tozasertib 0.054 | [4] 0.064 | doramapimod 0.068 | ispinesib -0.071 | bafetinib -0.107 | [5] -0.02 | nilotinib 0.073 | [6] 0.043 | dasatinib -0.122 | [7] -0.097 | [8] -0.084 | [9] -0.117 | tipifarnib 0.057 | mubritinib -0.042

Later entries

GART (UniProt P22102)
inactive: [1] 0.099 | crizotinib -0.069 | [2] 0.059 | [3] -0.017 | duvelisib 0.03 | gandotinib -0.055 | tozasertib 0.065 | [4] 0.065 | doramapimod 0.045 | ispinesib -0.092 | bafetinib 0.059 | [5] 0.05 | nilotinib 0.075 | [6] -0.032 | dasatinib -0.077 | [7] 0.017 | [8] 0.086 | [9] 0.092 | tipifarnib -0.08 | mubritinib 0.137

G3BP2 (UniProt Q9UN86)
inactive: [1] -0.104 | crizotinib -0.049 | [2] -0.401 | [3] 0.23 | duvelisib -0.126 | gandotinib 0.172 | tozasertib 0.053 | [4] -0.006 | doramapimod 0.163 | ispinesib -0.279 | bafetinib 0.214 | [5] -0.034 | nilotinib 0.031 | [6] 0.049 | dasatinib 0.036 | [7] 0.021 | [8] -0.3 | [9] -0.221 | tipifarnib 0.08 | mubritinib -0.09

GCAT isoform 2 (UniProt O75600)
inactive: [1] 0.028 | crizotinib 0 | [2] 0.089 | [3] -0.054 | duvelisib -0.043 | gandotinib 0.048 | tozasertib -0.093 | [4] 0.057 | doramapimod 0 | ispinesib -0.044 | bafetinib -0.064 | [5] -0.018 | nilotinib 0.09 | [6] 0.008 | dasatinib -0.032 | [7] -0.027 | [8] 0.002 | [9] -0.005 | tipifarnib 0.119 | mubritinib -0.077

GBA (UniProt P04062)
inactive: [1] -0.035 | crizotinib 0.069 | [2] -0.012 | [3] 0.023 | duvelisib 0.005 | gandotinib -0.013 | tozasertib -0.015 | [4] -0.034 | doramapimod 0.03 | ispinesib -0.013 | bafetinib -0.117 | [5] -0.03 | nilotinib 0.042 | [6] -0.028 | dasatinib 0.017 | [7] -0.053 | [8] -0.029 | [9] -0.039 | tipifarnib 0.087 | mubritinib -0.033
